Test results published in US7582609B2, “Method for the treatment of skin fibrosis and suitable compositions for such treatment” (Digna Biotech, S.L., priority 2006, dated 2009).
At least one peptide structure holds a part that was inferred or is arguable (an end, a ring closure or a residue). Ends that are not written are not given here.

Tested on: bleomycin-induced skin sclerosis
Type: in vivo
Procedure: Two emulsions or creams were prepared, an emulsion containing peptide P144 and a control emulsion with the vehicle for administration but without P144.
The control emulsion with the vehicle for administration was prepared by a procedure that starts with mixing of the components that are shown below in Table 2:
Next, this mixture was heated at 70° C. and was emulsified with 44.4 g of distilled water (also at 70° C.).
The emulsion containing the P144 was prepared as previously, except that the 44.4 g of water was replaced with a mixture of 44.28 g of water plus 0.010 g of P144 previously dissolved in 100 μl of dimethylsulphoxide.
The test was carried out using 6-week-old female C3H mice, supplied by Harlan SL (Spain). Development of skin sclerosis in the mice was induced by the administration of bleomycin (Sigma, Spain) dissolved in PBS at a concentration of 100 μg/ml and sterilized by filtration. The mice were injected with the bleomycin subcutaneously in the skin of the back, previously shaved, at daily doses of 100 μl of the solution in PBS injected with size 27 needles. The mice used as control received 100 μl of PBS without bleomycin. The injections were administered daily, at the same site, for 4 weeks.
The mice treated with bleomycin were divided into groups of 10 mice. In one group, 100 μl of the preparation of the emulsion containing P144 was applied daily in the shaved area of the skin, for the 4 weeks of bleomycin injections, whereas the other group received the control emulsion with the vehicle for administration. No composition was applied to the third group.
The mice were sacrificed by asphyxiation by inhalation of CO2, 24 hours after the last injection. The skin was removed from the back and biopsy specimens with diameter of 4 mm were obtained using a hole-making punch; these were frozen for subsequent protein analysis, whereas additional samples of skin were frozen in liquid nitrogen and were embedded in the medium known as “Tissue Tek® O.C.T. compound” (Optimal Cutting Temperature), supplied by SAKURA, the Netherlands, a medium for tissue protection by cryopreservation and then histological section, for subsequent histological and immunohistochemical investigations. The study was approved by the Ethical Committee of Complutense University of Madrid. […]
The thickness of the dermis was measured on the digitized images of the sections stained with haematoxylin and eosin, and then the percentage variation in thickness of the dermis was calculated relative to the mean of the values obtained for the mice treated with PBS, adjusted to 100%. […]

Sequence: TSLDASIIWAMMQN [Peptide P144]
- content of pepsin-soluble collagen (4-mm biopsies, Sircol, FIG. 2B, percentage relative to PBS mice, 10 mice per group): significant decrease
- thickness of the dermis (FIG. 2A, percentage relative to PBS mice, 10 mice per group, relative to vehicle, p<0.05): decreased significantly
- area of hypodermic collagen (Masson trichrome, FIG. 1B, topical P144 emulsion daily for 4 weeks with bleomycin, compared with vehicle): decrease
- area of dermal collagen (haematoxylin-eosin, FIG. 1A, topical P144 emulsion daily for 4 weeks with bleomycin, compared with vehicle): decrease
